In PubChem BioAssay AID504467 (National Center for Advancing Translational Sciences (NCATS), 2011):
Out of some 330,000 compounds screened, about 7,700 (2.3%) were called active. Inconclusive results, whose numbers are uncertain, are shown with a selection of clear calls. The call rests on the fitted dose curve; in most records, active means well fitted inhibition curve with a large enough effect; inconclusive means small, poorly fitted or top-dose-only effect, or effect the other way; inactive means flat fitted curve, though single readings scatter. Potencies beside an inconclusive call are fits to weak or partial responses and may not hold up.

assay: qHTS screen for small molecules that inhibit ELG1-dependent DNA repair in human embryonic kidney (HEK293T) cells expressing luciferase-tagged ELG1; conditions: HEK293T ELG1-luciferase reporter, luminescence, 16 h, DNA damage induced by 5-fluorouridine; activity change, negative = inhibition: at 46.1 µM (top of the series); further: nearly all actives have a fitted effect of over 55% in size
In short: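 DMSO vehicle served as the neutral condition. Each well held 2,000 cells given 5-fluorouridine plus compound; after 16 hr at 37 °C/5% CO2, ONE-Glo was added and luciferase measured 30 min later.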
On the % scale 0 is the no-effect control and ±100 the full control effect; potency means the concentration at half of the fitted maximal effect.

Structure (SMILES) | Potency | activity change, negative = inhibition
Cc1csc(=O)n1CC(=O)OCc1cccc2ccccc12 | inconclusive: 18.4 µM [activator, partial curve] | –
Cc1nnsc1C(=O)Nc1ccc(S(=O)(=O)N2CCCCC2C)cc1 (centres undefined) | inconclusive: 16.4 µM [inhibitor, partial curve] | –
CCCC(=O)Nc1cccc(NC(=O)c2ccc3c(c2)OCCO3)c1 | inconclusive: 23.1 µM [activator, single point] | –
CC(=O)Nc1ccccc1NC(=O)C/C(C)=N/NC(=O)c1ccccn1 | inconclusive: 14.6 µM [activator, partial curve] | –
O=C(Nc1nc(-c2cccs2)cs1)c1cc2ccccc2oc1=O | inconclusive: 18.4 µM [activator, single point] | –
Nc1c(N2CCCC2)cc(Cl)c2nonc12 | inconclusive: 20.6 µM [inhibitor, single point] | –
[NH-]c1ncnc2c1N=C[N+]2=CC=CCO | – | inactive: 16.9%
CCC(=O)Nc1cc(-c2nn(C)c(=O)c3ccccc23)ccc1N1CCOCC1 | inconclusive: 23.1 µM [activator, single point] | –
Cc1c(C#N)c(N=CN(C)C)c(C(=O)c2ccc(Br)cc2)n1-c1ccc(Cl)cc1 | inconclusive: 29.1 µM [inhibitor, single point] | –
CC(C)[C@H](NC(=O)c1ccccc1Cl)C(=O)OCc1cc([N+](=O)[O-])cc2c1OCOC2 | inconclusive: 20.6 µM [inhibitor, partial curve, poor fit] | –
N#CCSc1nnc2c(Cl)cc(Cl)cn12 | – | inactive: 7.2%
Cc1c(Cl)cccc1NS(=O)(=O)c1ccc2c(c1)C1C=CCC1C(c1ccc(C(=O)O)cc1)N2 (centres undefined) | – | inactive: 8.8%
CC1Oc2ccccc2C=C1/C=N/NC(=O)c1ccccc1 (centres undefined) | inconclusive: 4.11 µM [activator, partial curve] | –
O=C(Nc1ccc(C#Cc2ccccc2)cc1)C1CC1 | inconclusive: 9.2 µM [activator, partial curve] | –
CCOC(=O)c1cc(C)n(-c2ccc(OC)c(OC)c2)c1C | – | inactive: -18.2%
COc1ccc([C@H]2[C@H](C(=O)OC(C)(C)C)N3N=Cc4ccccc4C3C23C(=O)c2ccccc2C3=O)cc1OC (some centres undefined) | – | inactive: -1.93%
O=c1oc2ccccc2cc1-c1csc(NN=C2CCCC2)n1 | inconclusive: 23.1 µM [activator, single point] | –
Cc1cc(Cl)ccc1OCCCC(=O)NCCN1C(=O)S/C(=C\c2cccnc2)C1=O | inconclusive: 29.1 µM [inhibitor, single point] | –
CNC(=O)c1ccc(=O)n(Cc2cccc(C(F)(F)F)c2)c1 | – | inactive: -8.61%

Complete entries from above. Values in the order: Potency	activity change, negative = inhibition
CNC(=O)c1ccc(=O)n(Cc2cccc(C(F)(F)F)c2)c1 in the list: –	inactive: -8.61%
COc1ccc([C@H]2[C@H](C(=O)OC(C)(C)C)N3N=Cc4ccccc4C3C23C(=O)c2ccccc2C3=O)cc1OC (some centres undefined) in the list: –	inactive: -1.93%
